Source: publication PMC8782983
These are yes or no findings as the source states them, for the method shown. In cells and extracts the contact can be indirect. These calls come from enrichment with a bait or labelling near it, and not all partners need be listed. Tags and fused reporters may be left off the sequences shown.

Sequences of proteins named here, by UniProt entry; tags and fusion partners are left off.
UniProt Q9GZV4: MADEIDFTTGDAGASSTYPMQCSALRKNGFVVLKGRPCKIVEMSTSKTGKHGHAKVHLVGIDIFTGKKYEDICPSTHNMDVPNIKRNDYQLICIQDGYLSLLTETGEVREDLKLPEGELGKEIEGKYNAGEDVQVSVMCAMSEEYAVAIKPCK

Biological target: T1, HERC3-Flag (HECT and RLD domain containing E3 ubiquitin-protein ligase 3) (UniProt Q15034)
T1 sequence: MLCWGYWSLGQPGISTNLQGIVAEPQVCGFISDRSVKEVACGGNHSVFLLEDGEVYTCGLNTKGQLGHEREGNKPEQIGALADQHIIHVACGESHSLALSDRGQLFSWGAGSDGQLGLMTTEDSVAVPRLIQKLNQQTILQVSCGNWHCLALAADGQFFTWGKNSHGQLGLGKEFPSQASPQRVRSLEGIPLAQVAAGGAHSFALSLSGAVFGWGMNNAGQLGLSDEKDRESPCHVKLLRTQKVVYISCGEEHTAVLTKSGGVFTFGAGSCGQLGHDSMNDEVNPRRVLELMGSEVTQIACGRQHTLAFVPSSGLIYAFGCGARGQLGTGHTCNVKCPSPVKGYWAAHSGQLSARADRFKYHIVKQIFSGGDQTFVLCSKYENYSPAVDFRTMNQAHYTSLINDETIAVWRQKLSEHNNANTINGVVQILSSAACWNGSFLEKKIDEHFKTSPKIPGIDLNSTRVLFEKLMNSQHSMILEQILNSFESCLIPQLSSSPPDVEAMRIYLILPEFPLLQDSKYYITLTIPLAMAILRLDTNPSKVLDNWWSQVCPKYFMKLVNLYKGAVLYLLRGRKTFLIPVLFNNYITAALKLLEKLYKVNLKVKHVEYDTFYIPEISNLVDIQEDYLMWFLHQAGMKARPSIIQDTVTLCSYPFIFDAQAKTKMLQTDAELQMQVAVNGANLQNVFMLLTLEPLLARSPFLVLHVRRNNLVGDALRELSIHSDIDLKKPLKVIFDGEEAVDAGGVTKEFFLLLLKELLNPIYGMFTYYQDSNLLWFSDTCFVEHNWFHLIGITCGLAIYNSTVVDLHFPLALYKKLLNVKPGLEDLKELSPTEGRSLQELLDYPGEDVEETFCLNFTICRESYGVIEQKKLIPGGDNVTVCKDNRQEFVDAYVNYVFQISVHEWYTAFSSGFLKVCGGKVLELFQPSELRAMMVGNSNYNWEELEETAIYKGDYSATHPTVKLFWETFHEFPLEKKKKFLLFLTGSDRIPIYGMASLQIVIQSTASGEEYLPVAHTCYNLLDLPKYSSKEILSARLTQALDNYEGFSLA
Experiment: affinity purification with mass spectrometry; HERC3-Flag transfected into HCT116 cells, harvested after 48 h; lysates enriched with anti-Flag affinity gels, eluted in 8 M urea buffer, mass spectrometry

binding: binds
Substance: EIF5A2, endogenous (from UniProt Q9GZV4 1-153)
